Source: the supplement of paper PMC10338343
± gives the standard deviation. The entries are a selection whose mix differs from that of the whole data set. The uncertainty is large for many entries. Some of the results follow.

Legend:
[1] = test system: MILI (PIWIL2) piRISC loaded with L1MC piRNA (26 nt); assay: pre-steady-state target cleavage rate (min^-1); higher = faster piRNA-guided slicing of the target; settings: guide: L1MC piRNA 5'p-UAACUAAAUACUAUGCAAGCUGUAGG; auxiliary factor: none (no GTSF1)
Method in brief: (§1)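 With or without 500 nM GTSF1 partner protein, 1 nM active affinity-purified piRISC carrying one synthetic guide was mixed with 0.1 nM transcribed, DNA-blocked target RNA library in HEPES–potassium acetate buffer at 33 °C for 0–8 or 0–960 min. Uncleaved targets were sequenced and normalised to depth and to weakly complementary targets, three trials were pooled, and k3 was capped at 0.0001 min^-1. The pre-steady-state cleavage rate came from a burst-and-steady-state fit.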

[2] = test system: MIWI (PIWIL1) piRISC loaded with L1MC piRNA (30 nt); assay: as above; settings: guide: L1MC piRNA 5'p-UAACUAAAUACUAUGCAAGCUGUAGGUCCU; auxiliary factor: none (no GTSF1)
Method in brief: as §1

[3] = test system: EfPiwi piRISC loaded with L1MC piRNA (26 nt); assay: pre-steady-state target cleavage rate (min^-1); guide: L1MC piRNA 5'p-UAACUAAAUACUAUGCAAGCUGUAGG; MIWI and MILI are mouse PIWI proteins and EfPiwi is from a freshwater sponge; tags in brackets are library labels; higher = faster piRNA-guided slicing of the target
Method in brief: as §1

[4] = auxiliary factor: 500 nM Ephydatia muelleri Gtsf1
[5] = auxiliary factor: none (no Gtsf1)

Sequence	pre-steady-state target cleavage rate [1]	pre-steady-state target cleavage rate [2]	pre-steady-state target cleavage rate [3, 4]	pre-steady-state target cleavage rate [3, 5]
UCCUGCUACAGCUUGGUUAGUAUUUAGAAA	0.00118 ± 0.005	0.00117 ± 0.0052	0.00162 ± 0.0022	0.000234 ± 0.028
UCCUGGAUGAGCUUGCAUAGAUUUUAGAAA	0.000414 ± 0.013	0.00103 ± 0.0064	0.000573 ± 0.0054	0.000563 ± 0.011
UCCUGGAUGUCGAAGCAUAGUUUUUACUUA	0.000292 ± 0.012	0.000292 ± 0.021	0.000137 ± 0.018	< 0.0001
UCCUCCUACAGCUUGCAUAUGUAUUUAGUUA	0.00141 ± 0.0046	0.000773 ± 0.01	0.00297 ± 0.0032	0.000431 ± 0.011
UCCUGCUACACCUUGCAUAGUAUUUACAAA	0.00134 ± 0.0058	0.00208 ± 0.0047	0.00179 ± 0.0021	0.000167 ± 0.043
UCCUGGUACAGCUUGCAUAGUAAAAACAAA	0.00171 ± 0.0039	0.00131 ± 0.0061	0.000823 ± 0.0048	0.000214 ± 0.039
UCCUGGAUGUGCUUCCAUAGUAUUUAGUUA	0.00208 ± 0.0032	0.00222 ± 0.0026	0.00277 ± 0.0019	0.0006 ± 0.013
UCCUGCUACAGCUUGCAUAUGUAUUUAGUUA	0.00158 ± 0.0039	0.000797 ± 0.01	0.00294 ± 0.0023	< 0.0001
UCCUGGAACAGCUUGCAUAGUUUUUACAAA	0.000893 ± 0.007	0.00198 ± 0.0032	0.000834 ± 0.0053	0.000447 ± 0.019
UCCUGGAUGACCUAGCAUAGUAUUUAGUUA	0.00297 ± 0.0035	0.00132 ± 0.005	0.0121 ± 0.0072	0.000597 ± 0.012
UCCUGCUACAGCUUGCAUAGUAUUUAUUA	0.00119 ± 0.0052	0.000267 ± 0.013	0.00254 ± 0.0037	0.000706 ± 0.011
UCCUCCUACAGCUACGAUAGUAUUUUCAAA	0.000504 ± 0.0082	0.000204 ± 0.017	0.00114 ± 0.007	0.000209 ± 0.024
UCCUGGAUCAGCUUGCAUUCUAUUUAGUAA	0.00075 ± 0.0079	0.00249 ± 0.0036	0.000551 ± 0.0073	0.000191 ± 0.035
UCCUGCUACAGCUUGGUAAGUAUUUACAAA	0.00074 ± 0.0067	0.000245 ± 0.013	0.000415 ± 0.0087	0.000338 ± 0.017
UCCUGGAUCACGAUGCAUAGUAUUUUCAAA	0.00031 ± 0.009	0.000283 ± 0.011	0.00163 ± 0.0068	0.000122 ± 0.057
UCCUCCUACAGCUUCGAUAGUAUUUUCAAA	0.000675 ± 0.0066	0.000628 ± 0.0088	0.00156 ± 0.0033	0.00025 ± 0.017
UCCUCCUACAGCUUGCAUAGAUUUUACAAA	0.000885 ± 0.0057	0.00063 ± 0.011	0.00268 ± 0.0033	0.000419 ± 0.011
UCCUGGAUGUCGUUGCAAUCUAUUUAGUUA	0.000581 ± 0.0094	0.000582 ± 0.0084	0.000449 ± 0.0084	0.000149 ± 0.06
UCCUGGAACAGCAUCCAUAGUAUUUAGUUA	0.00189 ± 0.0028	0.00138 ± 0.0037	0.0025 ± 0.0021	0.000334 ± 0.017
UCCUGGAUGUCCUUGUCAUAGUAUUUAGUUA	0.00173 ± 0.0039	0.00066 ± 0.013	0.00236 ± 0.0053	0.00011 ± 0.028
UCCUGCUAGUGCUUGCAUAGUAUUUUCAAA	0.000562 ± 0.0071	0.00114 ± 0.0041	0.00146 ± 0.0038	0.000142 ± 0.032
UCCUGGUACAGCUUGCAUCAGUAUUUAGUUA	0.00173 ± 0.0047	0.00173 ± 0.0059	0.00147 ± 0.0039	0.000707 ± 0.013
UCCUCCUACAGCUUGCAUAGUAUAUACAAA	0.00156 ± 0.0034	0.000988 ± 0.0057	0.00313 ± 0.003	0.000247 ± 0.024

Just pre-steady-state target cleavage rate [2], for some of the entries so far:

| Sequence | pre-steady-state target cleavage rate [2] |
| --- | --- |
| UCCUGCUACAGCUUGCAUAUGUAUUUAGUUA | 0.000797 ± 0.01 |
| UCCUGGAACAGCUUGCAUAGUUUUUACAAA | 0.00198 ± 0.0032 |
